Data published in PubChem BioAssay AID248 (DTP/NCI, 2004).
The list shows only some results of the screen, not a fair sample: it is rich in T/C values a quarter to a half above the control, in often repeated tests (any T/C) and in doses without a T/C. Other doses and runs of a compound stand elsewhere. T/C: endpoint of the treated group in % of that of the vehicle group. Some entries give survivors of the animals treated and no T/C: the source holds a T/C of zero for them, seemingly a mark for toxic or unscored doses. Some doses without a T/C left all or most animals alive at the check, yet need not have been tolerated: the source hardly ever lists a survival T/C far under the control, and the zero likely stands for such cases as well. Survivors were counted at the toxicity check, usually on the fifth day, unless a day is given; later deaths do not show. Schedule codes are those of the source, taken here to give the interval after Q, in days (D) or hours (H), and the number of doses after X. Some schedules carry Z or #; the key to these is not given. Some entries hold several experiments; the values are given in rising order. Where survival is the endpoint, this PubChem deposit counts one and a half times the control or more as active, and values a quarter to a half above the control carry no call in these data; other NCI protocols may use other cut-offs. Some T/C values are followed by the survivors on the day toxicity was checked, most often the fifth; without a count, all were alive then.

Test system: L1210 leukemia ip in BDF1 mice, survival T/C
Assay: NCI In Vivo Anticancer Drug Screen. Data for tumor model L1210 Leukemia (intraperitoneal) in B6D2F1 (BDF1) mice
Conditions: T/C endpoint: mean survival time, higher T/C = longer survival
[1] = dose: 150.0 mg/kg/injection, schedule: Q01DX001 (ip), vehicle: saline
[2] = dose: 300.0 mg/kg/injection, schedule: Q01DX001 (ip), vehicle: saline
[3] = dose: 4.0 mg/kg/injection, schedule: Q01DX001 (ip), vehicle: saline
[4] = dose: 100.0 mg/kg/injection, schedule: Q04DX002 (ip), vehicle: Klucel (hydroxypropylcellulose) (HPC)
[5] = dose: 400.0 mg/kg/injection, schedule: Q01DX001 (ip), vehicle: saline
[6] = dose: 400.0 mg/kg/injection, schedule: Q04DX002 (ip), vehicle: Klucel (hydroxypropylcellulose) (HPC)
[7] = dose: 400.0 mg/kg/injection, schedule: Q04DX003 (ip), vehicle: water

Q: With `N#CC1c2cc(OC(=O)c3ccccc3)ccc2C=CN1C(=O)c1ccccc1` (stereo unspecified) as the compound, how does the survivor count (dose: 400.0 mg/kg/injection, schedule: Q04DX003 (ip), vehicle: gum acacia) read?
A: 6 of 6

Q: For `CC(=O)c1cccc(NC(=O)Nc2ccc(S(N)(=O)=O)cc2)c1`, which survivor count (dose: 400.0 mg/kg/injection, schedule: Q01DX009 (ip), vehicle: saline with Tween-80) is on record?
A: 3 of 6

Q: Which T/C (dose: 0.5 mg/kg/injection, schedule: Q01DX009 (ip), vehicle: saline) does the source give for `CCOC(OCC)C(=O)OCC(=O)[C@]1(O)Cc2c(O)c3c(c(O)c2[C@@H](OC2CC(N)C(O)C(C)O2)C1)C(=O)c1c(OC)cccc1C3=O` (stereo partly specified) here?
A: 133 % of control

Q: And the T/C (dose: 1.0 mg/kg/injection, schedule: Q01DX009 (ip), vehicle: saline)?
A: 143 % of control

Q: And the survivor count (dose: 8.0 mg/kg/injection, schedule: Q01DX009 (ip), vehicle: saline)?
A: 10 of 10

Q: For `CCCCCCCCCCCCCCCC[n+]1ccc(C#N)cc1`, which survivor count (dose: 20.0 mg/kg/injection, schedule: Q01DX001 (ip), vehicle: saline) is on record?
A: 6 of 6

Q: And the survivor count (dose: 40.0 mg/kg/injection, schedule: Q01DX001 (ip), vehicle: saline)?
A: 4 of 6

Q: What about the survivor count (dose: 75.0 mg/kg/injection, schedule: Q01DX001 (ip), vehicle: saline) of the same compound?
A: 1 of 6

Q: And the survivor count [1]?
A: 0 of 6

Q: And the survivor count [2]?
A: 0 of 6

Q: For `CCC1/C=C/C=C/CC(C)C(O)C(C)(O)C(=O)C(C)C(O)C(C)C(=O)C(C)C(O)C(C)/C=C/C(=O)OC2C(C)C(CC1)OC1(OC(CC(C)O)C(C)CC1=O)C2C` (stereo unspecified) (tested in a mixture with another compound), which T/C (dose: 0.31 mg/kg/injection, schedule: Q01DX009 (ip), vehicle: saline with Tween-80) is on record?
A: 136 % of control

Q: What about the T/C (dose: 0.47 mg/kg/injection, schedule: Q01DX009 (ip), vehicle: saline) of the same compound?
A: 142 % of control

Q: And the T/C (dose: 0.65 mg/kg/injection, schedule: Q01DX001 (ip), vehicle: saline)?
A: 125 % of control

Q: What about the survivor count (dose: 0.65 mg/kg/injection, schedule: Q04DX003 (ip), vehicle: saline) of the same compound?
A: 0 of 6

Q: What about the T/C (dose: 0.7 mg/kg/injection, schedule: Q01DX009 (ip), vehicle: saline with Tween-80) of the same compound?
A: 125 % of control

Q: What about the survivor count (dose: 0.72 mg/kg/injection, schedule: Q01DX009 (ip), vehicle: saline) of the same compound?
A: 0 of 6

Q: What about the T/C (dose: 1.0 mg/kg/injection, schedule: Q01DX Z (ip), vehicle: other) of the same compound?
A: 126 % of control

Q: What about the T/C (dose: 1.0 mg/kg/injection, schedule: Q01DX Z (ip), vehicle: saline) of the same compound?
A: 135 % of control

Q: And the survivor count (dose: 1.08 mg/kg/injection, schedule: Q01DX009 (ip), vehicle: saline)?
A: 0 of 6

Q: What about the survivor count (dose: 1.3 mg/kg/injection, schedule: Q01DX001 (ip), vehicle: saline) of the same compound?
A: 1 of 6

Q: What about the T/C (dose: 1.5 mg/kg/injection, schedule: Q01DX Z (ip), vehicle: saline) of the same compound?
A: 127 % of control

Q: And the T/C (dose: 2.0 mg/kg/injection, schedule: Q01DX001 (ip), vehicle: saline)?
A: 132 % of control

Q: What about the survivor count (dose: 2.3 mg/kg/injection, schedule: Q01DX Z (ip), vehicle: saline) of the same compound?
A: 5 of 6

Q: What about the survivor count (dose: 2.6 mg/kg/injection, schedule: Q01DX001 (ip), vehicle: saline) of the same compound?
A: 0 of 6

Q: And the survivor count (dose: 3.4 mg/kg/injection, schedule: Q01DX Z (ip), vehicle: saline)?
A: 1 of 6

Q: What about the T/C [3] of the same compound?
A: 128 % of control [4 of 6 alive]

Q: And the survivor count [3]?
A: 0 of 6

Q: What about the survivor count (dose: 5.0 mg/kg/injection, schedule: Q01DX Z (ip), vehicle: saline) of the same compound?
A: 0 of 6

Q: And the survivor count (dose: 6.0 mg/kg/injection, schedule: Q01DX001 (ip), vehicle: saline)?
A: 0 of 6

Q: And the survivor count (dose: 8.0 mg/kg/injection, schedule: Q01DX001 (ip), vehicle: saline)?
A: 2 of 6

Q: What about the survivor count (dose: 12.0 mg/kg/injection, schedule: Q01DX Z (ip), vehicle: methylcellulose (MC)) of the same compound?
A: 5 of 6

Q: What about the survivor count (dose: 16.0 mg/kg/injection, schedule: Q01DX Z (ip), vehicle: methylcellulose (MC)) of the same compound?
A: 1 of 6

Q: For `CC1(C)OC(CF)C2OC(C)(C)OC(CF)C2O1` (stereo unspecified), which survivor count (dose: 225.0 mg/kg/injection, schedule: Q01DX009 (ip), vehicle: carboxymethylcellulose (CMC)) is on record?
A: 2 of 6

Q: How did the survivor count (dose: 125.0 mg/kg/injection, schedule: Q01DX015 (ip), vehicle: carboxymethylcellulose (CMC)) turn out when `Cn1c(O)c(N=NC(N)=S)c2ccccc21` was run?
A: 6 of 6

Q: What about the survivor count (dose: 250.0 mg/kg/injection, schedule: Q01DX015 (ip), vehicle: carboxymethylcellulose (CMC)) of the same compound?
A: 6 of 6

Q: What about the survivor count (dose: 500.0 mg/kg/injection, schedule: Q01DX015 (ip), vehicle: carboxymethylcellulose (CMC)) of the same compound?
A: 1 of 6

Q: `Clc1ccc2c(c1)C1c3ccccc3C2C2c3ccccc3C1c1ccccc12` (stereo unspecified) was tested. Which survivor count [4] did it give?
A: 3 of 3

Q: With `COC1OC2COc3ccccc3OC2C(NC#N)C1OC` (stereo unspecified) as the compound, how does the survivor count (dose: 200.0 mg/kg/injection, schedule: Q01DX009 (ip), vehicle: Klucel (hydroxypropylcellulose) (HPC)) read?
A: 3 of 6

Q: What about the survivor count (dose: 400.0 mg/kg/injection, schedule: Q01DX009 (ip), vehicle: Klucel (hydroxypropylcellulose) (HPC)) of the same compound?
A: 0 of 6

Q: Which results are given for `O=C(NC(=S)Nc1ccccc1C(=O)O)c1ccccc1`?
A: T/C (dose: 100.0 mg/kg/injection, schedule: Q01DX009 (ip), vehicle: saline sonified): 131 % of control [5 of 6 alive]; survivor count (dose: 400.0 mg/kg/injection, schedule: Q04DX003 (ip), vehicle: saline sonified): 1 of 6

Q: Which survivor count [5] does the source give for `c1ccc(N=P(c2ccccc2)(c2ccccc2)c2ccccc2)cc1` here?
A: 1 of 4

Q: `COc1ccc(F)cc1CC#N` was tested. Which survivor count [6] did it give?
A: 1 of 3

Q: `NC(CS)=NCCc1nc2ccccc2[nH]1` was tested. Which survivor count (dose: 200.0 mg/kg/injection, schedule: Q04DX002 (ip), vehicle: saline) did it give?
A: 0 of 3

Q: What about the survivor count (dose: 400.0 mg/kg/injection, schedule: Q04DX002 (ip), vehicle: saline) of the same compound?
A: 1 of 3

Q: With `CCS(=O)c1ncc2cnccn12` (stereo unspecified) as the compound, how does the survivor count (dose: 200.0 mg/kg/injection, schedule: Q01DX009 (ip), vehicle: water) read?
A: 1 of 6

Q: What about the survivor count [7] of the same compound?
A: 0 of 6

Q: What does the source list for `CSC(Cl)=C(Cl)Cl`?
A: survivor count (dose: 200.0 mg/kg/injection, schedule: Q01DX001 (ip), vehicle: saline): 1 of 6; survivor count [5]: 0 of 6

Q: `C[n+]1ccc2cc(-c3ccccc3)c3ccccc3c2c1` was tested. Which survivor count (dose: 25.0 mg/kg/injection, schedule: Q01DX009 (ip), vehicle: water) did it give?
A: 0 of 6

Q: And the survivor count (dose: 50.0 mg/kg/injection, schedule: Q04DX003 (ip), vehicle: water)?
A: 0 of 6

Q: What about the survivor count (dose: 100.0 mg/kg/injection, schedule: Q04DX003 (ip), vehicle: water) of the same compound?
A: 0 of 6

Q: What about the survivor count (dose: 200.0 mg/kg/injection, schedule: Q04DX003 (ip), vehicle: water) of the same compound?
A: 0 of 6

Q: And the survivor count [7]?
A: 0 of 6

Q: For `CCN(CC)CCN(C)C(=O)C(c1ccccc1)c1ccccc1`, which survivor count (dose: 400.0 mg/kg/injection, schedule: Q04DX003 (ip), vehicle: saline) is on record?
A: 1 of 6

Q: Which survivor count (dose: 100.0 mg/kg/injection, schedule: Q01DX009 (ip), vehicle: saline with Tween-80) does the source give for `CCCCCCCCCCCCCCCCOP(=O)(O)OCCCCCCCCCCCCCCCC` here?
A: 6 of 6

Q: What about the survivor count (dose: 200.0 mg/kg/injection, schedule: Q01DX009 (ip), vehicle: saline with Tween-80) of the same compound?
A: 6 of 6

Q: What does the source list for `c1ccc(C[P+](Cc2ccccc2)(c2ccccc2)c2ccccc2)cc1`?
A: survivor count [1]: 6 of 6; survivor count [2]: 3 of 6

Q: `CC1=CC(C)C(=O)N(CC(C)N2CCCC2)C(C)=C1` (stereo unspecified) was tested. Which survivor count (dose: 150.0 mg/kg/injection, schedule: Q01DX001 (ip), vehicle: carboxymethylcellulose (CMC)) did it give?
A: 1 of 6

Q: And the survivor count (dose: 300.0 mg/kg/injection, schedule: Q01DX001 (ip), vehicle: carboxymethylcellulose (CMC))?
A: 0 of 6

Q: For `Nc1nc(N)c2nc(CNc3ccc(C(=O)NCC(=O)O)cc3)cnc2n1`, which survivor count (dose: 80.0 mg/kg/injection, schedule: Q01DX009 (ip), vehicle: Klucel (hydroxypropylcellulose) (HPC)) is on record?
A: 3 of 5

Q: What does the source list for `COc1ccc(C#N)cc1OC`?
A: survivor count (dose: 50.0 mg/kg/injection, schedule: Q04DX002 (ip), vehicle: Klucel (hydroxypropylcellulose) (HPC)): 0 of 3; survivor count [4]: 0 of 3, 1 of 3, 3 of 3; survivor count (dose: 200.0 mg/kg/injection, schedule: Q04DX002 (ip), vehicle: Klucel (hydroxypropylcellulose) (HPC)): 0 of 3; survivor count [6]: 0 of 3 and 3 of 3
